Results are given in words; binding and its absence hold for the method and conditions named. For some of these results: Binding seen in cells or lysates may run through a third protein. Some binding calls cover weakened binding; strength is not graded here. For some of these results: Where a sequence is shown, tags or fusion partners need not be part of it. Each block holds one molecule with its values, some of them ahead of it.
What was measured:
GST-SIAH2 (human) = molecular target: T1, GST-SIAH2 (human) (UniProt O43255); test: pull-down
T1 sequence: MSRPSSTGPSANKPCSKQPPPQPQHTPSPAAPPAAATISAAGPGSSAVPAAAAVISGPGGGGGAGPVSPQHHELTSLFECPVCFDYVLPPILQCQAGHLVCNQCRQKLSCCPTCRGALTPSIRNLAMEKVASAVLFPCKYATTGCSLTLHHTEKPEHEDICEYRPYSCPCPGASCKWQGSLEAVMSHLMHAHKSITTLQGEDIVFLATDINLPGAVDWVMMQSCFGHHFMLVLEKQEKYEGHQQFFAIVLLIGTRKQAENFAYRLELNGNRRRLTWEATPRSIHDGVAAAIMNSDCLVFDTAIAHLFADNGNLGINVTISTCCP

Protein sequences, listed by entry. Tags and fused reporters are not part of them. Lines headed by an entry give the natural chain unless they say otherwise; changes in a name come on top.
UniProt Q8N163: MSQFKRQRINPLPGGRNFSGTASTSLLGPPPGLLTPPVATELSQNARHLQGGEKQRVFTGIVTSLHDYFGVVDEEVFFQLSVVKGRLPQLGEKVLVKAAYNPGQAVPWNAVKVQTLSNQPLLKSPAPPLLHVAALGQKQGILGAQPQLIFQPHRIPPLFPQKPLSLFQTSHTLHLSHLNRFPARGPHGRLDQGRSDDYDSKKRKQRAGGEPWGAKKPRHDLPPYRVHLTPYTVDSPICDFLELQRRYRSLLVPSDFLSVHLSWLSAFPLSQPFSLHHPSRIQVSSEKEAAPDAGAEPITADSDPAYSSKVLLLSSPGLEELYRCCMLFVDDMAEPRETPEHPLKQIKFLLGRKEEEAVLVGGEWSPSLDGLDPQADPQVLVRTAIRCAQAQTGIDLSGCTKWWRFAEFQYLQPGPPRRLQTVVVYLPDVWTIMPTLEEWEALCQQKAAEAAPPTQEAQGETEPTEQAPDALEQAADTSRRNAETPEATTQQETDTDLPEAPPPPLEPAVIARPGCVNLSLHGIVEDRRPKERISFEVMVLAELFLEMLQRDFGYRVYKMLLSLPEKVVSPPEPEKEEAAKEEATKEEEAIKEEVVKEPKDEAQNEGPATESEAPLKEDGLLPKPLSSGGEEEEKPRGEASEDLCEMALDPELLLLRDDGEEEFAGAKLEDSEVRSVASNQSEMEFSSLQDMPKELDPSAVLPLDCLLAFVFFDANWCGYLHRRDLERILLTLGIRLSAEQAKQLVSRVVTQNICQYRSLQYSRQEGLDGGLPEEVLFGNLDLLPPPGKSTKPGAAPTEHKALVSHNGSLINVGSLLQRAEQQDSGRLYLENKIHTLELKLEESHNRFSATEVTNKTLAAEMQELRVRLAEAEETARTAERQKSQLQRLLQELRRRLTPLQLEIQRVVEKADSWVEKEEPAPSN

His-DBC1 (human) = His-DBC1 (human) (UniProt Q8N163); test: pull-down
[1] = molecular target: endogenous DBC1 (human (endogenous in MDA-MB-231)) (UniProt Q8N163); test: co-IP
Myc-DBC1 (human) = Myc-DBC1 (human) (UniProt Q8N163); test: co-IP

binding (GST-SIAH2 (human)): no binding
Molecule: C-terminal half of His-DBC1 (462-923) (from UniProt Q8N163 462-923) (domain or fragment)

binding (His-DBC1 (human)): binds
binding [1]: binds
B1: endogenous OTUD5 (enzyme, UniProt Q96G74 1-571)
chain: MTILPKKKPPPPDADPANEPPPPGPMPPAPRRGGGVGVGGGGTGVGGGDRDRDSGVVGARPRASPPPQGPLPGPPGALHRWALAVPPGAVAGPRPQQASPPPCGGPGGPGGGPGDALGAAAAGVGAAGVVVGVGGAVGVGGCCSGPGHSKRRRQAPGVGAVGGGSPEREEVGAGYNSEDEYEAAAARIEAMDPATVEQQEHWFEKALRDKKGFIIKQMKEDGACLFRAVADQVYGDQDMHEVVRKHCMDYLMKNADYFSNYVTEDFTTYINRKRKNNCHGNHIEMQAMAEMYNRPVEVYQYSTGTSAVEPINTFHGIHQNEDEPIRVSYHRNIHYNSVVNPNKATIGVGLGLPSFKPGFAEQSLMKNAIKTSEESWIEQQMLEDKKRATDWEATNEAIEEQVARESYLQWLRDQEKQARQVRGPSQPRKASATCSSATAAASSGLEEWTSRSPRQRSSASSPEHPELHAELGMKPPSPGTVLALAKPPSPCAPGTSSQFSAGADRATSPLVSLYPALECRALIQQMSPSAFGLNDWDDDEILASVLAVSQQEYLDSMKKNKVHRDPPPDKS

binding (Myc-DBC1 (human)): binds
B2: Flag-OTUD5 (enzyme, UniProt Q96G74 1-571)
chain: MTILPKKKPPPPDADPANEPPPPGPMPPAPRRGGGVGVGGGGTGVGGGDRDRDSGVVGARPRASPPPQGPLPGPPGALHRWALAVPPGAVAGPRPQQASPPPCGGPGGPGGGPGDALGAAAAGVGAAGVVVGVGGAVGVGGCCSGPGHSKRRRQAPGVGAVGGGSPEREEVGAGYNSEDEYEAAAARIEAMDPATVEQQEHWFEKALRDKKGFIIKQMKEDGACLFRAVADQVYGDQDMHEVVRKHCMDYLMKNADYFSNYVTEDFTTYINRKRKNNCHGNHIEMQAMAEMYNRPVEVYQYSTGTSAVEPINTFHGIHQNEDEPIRVSYHRNIHYNSVVNPNKATIGVGLGLPSFKPGFAEQSLMKNAIKTSEESWIEQQMLEDKKRATDWEATNEAIEEQVARESYLQWLRDQEKQARQVRGPSQPRKASATCSSATAAASSGLEEWTSRSPRQRSSASSPEHPELHAELGMKPPSPGTVLALAKPPSPCAPGTSSQFSAGADRATSPLVSLYPALECRALIQQMSPSAFGLNDWDDDEILASVLAVSQQEYLDSMKKNKVHRDPPPDKS
